Test results as given in PMC9226498, “Structural basis for interaction between CLAMP and MSL2 proteins involved in the specific recruitment of the dosage compensation complex in Drosophila” (Nucleic Acids Research, 2022).
Results are given in words; binding and its absence hold for the method and conditions named. In cells and extracts the contact can be indirect. Binding can be weak; no strength is given. Where a sequence is shown, tags or fusion partners need not be part of it.

Amino acid sequences for entries named in this document (tags omitted). A change or cut given only in a name is not applied to a line headed by its entry.
UniProt P50534: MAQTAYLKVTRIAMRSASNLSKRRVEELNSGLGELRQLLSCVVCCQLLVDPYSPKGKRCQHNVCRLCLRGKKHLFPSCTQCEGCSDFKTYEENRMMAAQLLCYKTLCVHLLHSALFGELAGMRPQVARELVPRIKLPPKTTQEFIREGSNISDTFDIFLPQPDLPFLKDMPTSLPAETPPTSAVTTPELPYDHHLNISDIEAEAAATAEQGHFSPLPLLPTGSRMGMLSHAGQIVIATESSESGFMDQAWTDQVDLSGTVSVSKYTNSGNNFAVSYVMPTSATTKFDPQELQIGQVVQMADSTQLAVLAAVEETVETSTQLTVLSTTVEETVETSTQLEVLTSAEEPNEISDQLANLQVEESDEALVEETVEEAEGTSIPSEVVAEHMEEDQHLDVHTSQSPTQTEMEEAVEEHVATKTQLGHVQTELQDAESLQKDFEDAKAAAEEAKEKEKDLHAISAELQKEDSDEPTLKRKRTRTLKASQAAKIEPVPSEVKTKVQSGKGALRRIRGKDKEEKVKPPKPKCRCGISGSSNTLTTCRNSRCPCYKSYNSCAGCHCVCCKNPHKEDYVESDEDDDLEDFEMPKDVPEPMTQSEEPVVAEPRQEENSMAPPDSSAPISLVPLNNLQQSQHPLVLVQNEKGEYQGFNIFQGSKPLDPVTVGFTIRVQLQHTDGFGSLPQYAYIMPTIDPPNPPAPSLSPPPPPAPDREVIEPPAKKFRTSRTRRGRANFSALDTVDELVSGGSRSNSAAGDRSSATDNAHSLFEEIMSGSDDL

Tests used:
[1] = biological target: GST-tagged MSL2^618–655 V634A (Drosophila melanogaster) (UniProt P50534); test: pull-down; GST-pulldown: GST-tagged MSL2 618–655 and 6xHis-thioredoxin-tagged CLAMP 1–153; performed as described in ref. 12
[2] = biological target: GST-tagged MSL2^618–655 L633A (Drosophila melanogaster) (UniProt P50534); test: as above

binding [1]: binds | binding [2]: binds
B1: 6xHis-thioredoxin-tagged CLAMP^1–153 (domain or fragment, UniProt Q9V9N4 1-153)
chain: MEDLTKNIIFTNAINGQPATIQYQTADGTILKQPKIEGQKTEQQPTFYYTTNGNGGTVNLAQLATTDDNKTCYIAQPVGGYNYALVNGMPLNQGAALGIATVDAQGRIQIVNQNKPIAANTISNISFKCDVCSDMFPHLALLNAHKRMHTDGE
